Results taken from article PMC7862700.
This is a selection; strong and weak results do not stand in their true shares. At the low end of the ranking the order means little.

Sequences of proteins named here, by UniProt entry; tags and fusion partners are left off. A change or cut given only in a name is not applied to a line headed by its entry.
UniProt Q01892: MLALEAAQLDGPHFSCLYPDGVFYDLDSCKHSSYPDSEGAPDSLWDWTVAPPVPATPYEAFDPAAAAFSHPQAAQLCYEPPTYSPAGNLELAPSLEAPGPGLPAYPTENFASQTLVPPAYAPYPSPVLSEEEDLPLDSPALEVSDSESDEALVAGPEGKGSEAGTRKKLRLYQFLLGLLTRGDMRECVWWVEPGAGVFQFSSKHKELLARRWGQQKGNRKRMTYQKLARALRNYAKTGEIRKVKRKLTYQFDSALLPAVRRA
UniProt P41161: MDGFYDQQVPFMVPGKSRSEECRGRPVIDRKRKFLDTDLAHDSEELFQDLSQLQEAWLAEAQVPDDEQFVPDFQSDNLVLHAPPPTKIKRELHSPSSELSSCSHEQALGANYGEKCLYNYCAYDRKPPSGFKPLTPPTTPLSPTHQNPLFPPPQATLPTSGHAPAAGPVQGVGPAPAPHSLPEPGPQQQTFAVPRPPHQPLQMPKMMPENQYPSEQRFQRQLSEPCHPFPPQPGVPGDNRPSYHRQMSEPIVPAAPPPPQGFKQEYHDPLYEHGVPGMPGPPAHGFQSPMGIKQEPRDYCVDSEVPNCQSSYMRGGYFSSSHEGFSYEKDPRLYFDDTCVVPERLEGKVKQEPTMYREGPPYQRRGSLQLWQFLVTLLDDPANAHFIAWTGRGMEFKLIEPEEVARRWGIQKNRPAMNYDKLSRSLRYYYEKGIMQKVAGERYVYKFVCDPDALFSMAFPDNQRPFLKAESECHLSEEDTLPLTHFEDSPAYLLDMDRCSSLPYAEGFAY
UniProt Q99607: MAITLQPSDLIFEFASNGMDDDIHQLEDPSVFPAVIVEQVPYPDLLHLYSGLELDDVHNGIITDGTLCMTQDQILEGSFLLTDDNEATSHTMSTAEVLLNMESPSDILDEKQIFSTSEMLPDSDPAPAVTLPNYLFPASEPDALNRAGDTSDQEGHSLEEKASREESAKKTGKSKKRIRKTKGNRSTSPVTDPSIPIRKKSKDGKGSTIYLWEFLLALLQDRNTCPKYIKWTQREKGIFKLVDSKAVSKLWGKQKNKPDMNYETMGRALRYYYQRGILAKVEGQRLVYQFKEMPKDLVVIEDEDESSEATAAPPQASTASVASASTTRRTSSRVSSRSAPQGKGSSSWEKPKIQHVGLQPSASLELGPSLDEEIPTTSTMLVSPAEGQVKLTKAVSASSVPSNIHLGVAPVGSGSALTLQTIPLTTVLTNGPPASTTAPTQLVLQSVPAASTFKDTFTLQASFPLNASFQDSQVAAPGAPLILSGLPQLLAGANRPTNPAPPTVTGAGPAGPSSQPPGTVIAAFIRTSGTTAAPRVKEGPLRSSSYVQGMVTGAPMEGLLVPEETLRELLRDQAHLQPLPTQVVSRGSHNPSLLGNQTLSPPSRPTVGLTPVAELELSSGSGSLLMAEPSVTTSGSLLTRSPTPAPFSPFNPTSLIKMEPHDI

How the values were obtained:
Test in all cases: DAPPL (digital affinity profiling via proximity ligation, sequencing)
Conditions in all cases: 10 mM Tris-HCl pH 7.5, 50 mM NaCl, 1 mM DTT, 4% glycerol, room temperature, 30 min; GST-TFs on glutathione beads, 16-mer random dsDNA library, 0.1% …; high values mean tight binding; double strand, one strand shown; scale: fold enrichment (6-mer frequency, TF over GST control)
[1] = target: T1, FLI1 (UniProt Q01543)
T1 sequence: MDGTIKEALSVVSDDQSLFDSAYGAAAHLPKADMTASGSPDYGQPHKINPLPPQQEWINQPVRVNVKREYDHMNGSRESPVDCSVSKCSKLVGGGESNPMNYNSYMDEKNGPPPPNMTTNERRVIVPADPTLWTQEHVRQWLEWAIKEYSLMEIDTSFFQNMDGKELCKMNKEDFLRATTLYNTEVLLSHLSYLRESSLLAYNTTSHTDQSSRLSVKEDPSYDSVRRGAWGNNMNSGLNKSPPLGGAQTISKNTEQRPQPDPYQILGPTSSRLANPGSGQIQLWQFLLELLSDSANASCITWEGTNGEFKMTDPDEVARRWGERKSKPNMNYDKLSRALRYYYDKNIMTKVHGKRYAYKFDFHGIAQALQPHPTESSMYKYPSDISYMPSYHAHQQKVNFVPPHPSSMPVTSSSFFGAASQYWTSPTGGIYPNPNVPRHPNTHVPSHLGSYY

[2] = target: T2, EHF (UniProt Q9NZC4)
T2 sequence: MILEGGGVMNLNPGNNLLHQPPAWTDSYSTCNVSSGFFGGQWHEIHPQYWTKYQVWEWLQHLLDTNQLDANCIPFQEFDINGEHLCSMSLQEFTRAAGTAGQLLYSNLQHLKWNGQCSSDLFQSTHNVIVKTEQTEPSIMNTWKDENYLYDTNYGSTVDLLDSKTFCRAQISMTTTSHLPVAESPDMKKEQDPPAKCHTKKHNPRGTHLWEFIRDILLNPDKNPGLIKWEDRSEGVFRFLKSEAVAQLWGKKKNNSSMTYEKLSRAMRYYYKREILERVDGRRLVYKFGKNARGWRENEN

[3] = target: SPIB (UniProt Q01892)
[4] = target: ETV5 (UniProt P41161)
[5] = target: ELF4 (UniProt Q99607)
[6] = target: T3, ETV2 (UniProt O00321)
T3 sequence: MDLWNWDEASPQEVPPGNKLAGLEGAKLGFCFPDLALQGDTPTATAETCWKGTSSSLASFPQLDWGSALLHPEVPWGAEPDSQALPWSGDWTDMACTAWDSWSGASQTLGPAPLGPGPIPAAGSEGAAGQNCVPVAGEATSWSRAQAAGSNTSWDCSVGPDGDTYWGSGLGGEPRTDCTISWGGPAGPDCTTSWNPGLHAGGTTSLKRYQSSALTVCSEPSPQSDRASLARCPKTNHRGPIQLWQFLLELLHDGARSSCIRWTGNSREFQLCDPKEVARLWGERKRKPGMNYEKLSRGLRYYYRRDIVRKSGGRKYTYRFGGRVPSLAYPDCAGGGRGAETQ

[7] = target: T4, ETV3L (UniProt Q6ZN32)
T4 sequence: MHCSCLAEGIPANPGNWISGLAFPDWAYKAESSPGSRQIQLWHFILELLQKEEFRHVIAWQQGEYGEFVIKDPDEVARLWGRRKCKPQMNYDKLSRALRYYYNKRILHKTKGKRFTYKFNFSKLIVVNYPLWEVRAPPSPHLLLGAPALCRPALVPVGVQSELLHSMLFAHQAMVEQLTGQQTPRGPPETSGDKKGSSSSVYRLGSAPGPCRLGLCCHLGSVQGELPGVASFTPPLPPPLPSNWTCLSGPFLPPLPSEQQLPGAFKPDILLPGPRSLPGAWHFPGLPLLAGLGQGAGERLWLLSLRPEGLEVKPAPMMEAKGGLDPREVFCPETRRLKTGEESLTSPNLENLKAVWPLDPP

Row | Sequence | binding signal [1] | binding signal [2] | binding signal [3] | binding signal [4] | binding signal [5] | binding signal [6] | binding signal [7]
1 | GGCCAG | 0.463 | 0.494 | 0.448 | 0.425 | 0.471 | 0.476 | 0.472
2 | AGTGTG | 0.669 | 0.691 | 0.742 | 0.669 | 0.662 | 0.77 | 0.606
3 | GGTCAG | 0.593 | 0.515 | 0.624 | 0.532 | 0.568 | 0.565 | 0.57
4 | TGGGGA | 0.888 | 0.861 | 0.765 | 0.805 | 0.762 | 0.757 | 0.854
5 | CCATGT | 0.815 | 0.879 | 0.847 | 0.802 | 0.844 | 0.868 | 0.915
6 | GGGGGA | 0.639 | 0.533 | 0.562 | 0.57 | 0.505 | 0.589 | 0.635
7 | AGGGTG | 0.768 | 0.774 | 0.809 | 0.829 | 0.76 | 0.728 | 0.715
8 | CGTGTC | 0.752 | 0.813 | 0.793 | 0.826 | 0.752 | 0.751 | 0.771
9 | CGAGGG | 0.711 | 0.651 | 0.72 | 0.662 | 0.693 | 0.7 | 0.673
10 | AATCGG | 0.566 | 0.559 | 0.531 | 0.602 | 0.543 | 0.553 | 0.545
11 | GGGGCG | 0.632 | 0.657 | 0.59 | 0.666 | 0.653 | 0.717 | 0.619
12 | GGACCG | 0.812 | 0.773 | 0.874 | 0.85 | 0.784 | 0.825 | 0.812
13 | GAACGA | 0.787 | 0.741 | 0.773 | 0.794 | 0.726 | 0.732 | 0.766
14 | CAGGGA | 0.55 | 0.532 | 0.548 | 0.494 | 0.535 | 0.532 | 0.528
15 | TCAGGC | 0.802 | 0.669 | 0.727 | 0.713 | 0.695 | 0.66 | 0.735
16 | GACCAC | 0.925 | 0.989 | 0.791 | 0.847 | 0.996 | 0.918 | 0.915
17 | GCGGGG | 0.466 | 0.44 | 0.465 | 0.436 | 0.494 | 0.501 | 0.508
18 | GTACCG | 0.78 | 0.699 | 0.73 | 0.748 | 0.737 | 0.71 | 0.766
19 | CAGGAC | 0.749 | 0.704 | 0.825 | 0.776 | 0.745 | 0.729 | 0.816
20 | GCACCA | 0.886 | 0.859 | 0.78 | 0.832 | 0.877 | 0.782 | 0.892
21 | CGTTAG | 0.77 | 0.79 | 0.828 | 0.826 | 0.807 | 0.964 | 0.808
22 | GTCGCG | 0.67 | 0.699 | 0.652 | 0.603 | 0.641 | 0.647 | 0.56

Row | Sequence | binding signal [1] | binding signal [2] | binding signal [3] | binding signal [4] | binding signal [5] | binding signal [6] | binding signal [7]
23 | GACGAG | 0.506 | 0.498 | 0.58 | 0.532 | 0.502 | 0.727 | 0.512
24 | CATAGG | 0.679 | 0.742 | 0.79 | 0.866 | 0.739 | 0.804 | 0.783
25 | GCGTCG | 0.699 | 0.71 | 0.769 | 0.733 | 0.708 | 0.764 | 0.748
26 | AGAGCC | 0.766 | 0.813 | 0.688 | 0.7 | 0.748 | 0.693 | 0.67
27 | GTAGGG | 0.599 | 0.725 | 0.702 | 0.727 | 0.708 | 0.652 | 0.742
28 | AGGGGT | 0.883 | 0.809 | 0.85 | 0.838 | 0.803 | 0.839 | 0.817
29 | AGTCGT | 0.42 | 0.34 | 0.366 | 0.381 | 0.394 | 0.406 | 0.415
30 | GGGGTC | 0.618 | 0.655 | 0.615 | 0.625 | 0.641 | 0.677 | 0.687
31 | CGTGGG | 0.384 | 0.358 | 0.361 | 0.354 | 0.363 | 0.375 | 0.369
32 | GAGGCT | 0.597 | 0.603 | 0.587 | 0.585 | 0.621 | 0.615 | 0.638
33 | AGTGAG | 0.261 | 0.269 | 0.246 | 0.253 | 0.269 | 0.241 | 0.265
34 | GGCATC | 0.861 | 0.862 | 0.906 | 0.888 | 0.846 | 0.907 | 0.932
35 | CAAGAG | 0.794 | 0.82 | 0.645 | 0.732 | 0.777 | 0.766 | 0.763
36 | CGGAGC | 0.374 | 0.381 | 0.417 | 0.367 | 0.364 | 0.287 | 0.408
37 | TATCGG | 0.804 | 0.756 | 0.775 | 0.819 | 0.848 | 0.815 | 0.824
38 | AGGCAT | 0.816 | 0.842 | 0.758 | 0.78 | 0.768 | 0.796 | 0.882
39 | CCGTGA | 0.191 | 0.187 | 0.177 | 0.191 | 0.164 | 0.187 | 0.192
40 | GGGCAA | 0.863 | 0.869 | 0.819 | 0.902 | 0.887 | 0.831 | 0.908
41 | CGTGAT | 0.456 | 0.478 | 0.429 | 0.47 | 0.465 | 0.41 | 0.504
42 | CCAGGC | 0.407 | 0.418 | 0.384 | 0.4 | 0.44 | 0.456 | 0.428
43 | GAGACG | 0.331 | 0.353 | 0.305 | 0.325 | 0.319 | 0.363 | 0.312

Copied from above, nos. 5–15
Row | Sequence | binding signal [1] | binding signal [2] | binding signal [3] | binding signal [4] | binding signal [5] | binding signal [6] | binding signal [7]
5 | CCATGT | 0.815 | 0.879 | 0.847 | 0.802 | 0.844 | 0.868 | 0.915
6 | GGGGGA | 0.639 | 0.533 | 0.562 | 0.57 | 0.505 | 0.589 | 0.635
7 | AGGGTG | 0.768 | 0.774 | 0.809 | 0.829 | 0.76 | 0.728 | 0.715
8 | CGTGTC | 0.752 | 0.813 | 0.793 | 0.826 | 0.752 | 0.751 | 0.771
9 | CGAGGG | 0.711 | 0.651 | 0.72 | 0.662 | 0.693 | 0.7 | 0.673
10 | AATCGG | 0.566 | 0.559 | 0.531 | 0.602 | 0.543 | 0.553 | 0.545
11 | GGGGCG | 0.632 | 0.657 | 0.59 | 0.666 | 0.653 | 0.717 | 0.619
12 | GGACCG | 0.812 | 0.773 | 0.874 | 0.85 | 0.784 | 0.825 | 0.812
13 | GAACGA | 0.787 | 0.741 | 0.773 | 0.794 | 0.726 | 0.732 | 0.766
14 | CAGGGA | 0.55 | 0.532 | 0.548 | 0.494 | 0.535 | 0.532 | 0.528
15 | TCAGGC | 0.802 | 0.669 | 0.727 | 0.713 | 0.695 | 0.66 | 0.735
